# Assay results as given in the supplement of paper PMC12823440, “Inhibitors supercharge kinase turnover through native proteolytic circuits” (Nature, 2025).
# Sequences of proteins named here, by UniProt entry; tags and fusion partners are left off.
# UniProt P29317, whole entry: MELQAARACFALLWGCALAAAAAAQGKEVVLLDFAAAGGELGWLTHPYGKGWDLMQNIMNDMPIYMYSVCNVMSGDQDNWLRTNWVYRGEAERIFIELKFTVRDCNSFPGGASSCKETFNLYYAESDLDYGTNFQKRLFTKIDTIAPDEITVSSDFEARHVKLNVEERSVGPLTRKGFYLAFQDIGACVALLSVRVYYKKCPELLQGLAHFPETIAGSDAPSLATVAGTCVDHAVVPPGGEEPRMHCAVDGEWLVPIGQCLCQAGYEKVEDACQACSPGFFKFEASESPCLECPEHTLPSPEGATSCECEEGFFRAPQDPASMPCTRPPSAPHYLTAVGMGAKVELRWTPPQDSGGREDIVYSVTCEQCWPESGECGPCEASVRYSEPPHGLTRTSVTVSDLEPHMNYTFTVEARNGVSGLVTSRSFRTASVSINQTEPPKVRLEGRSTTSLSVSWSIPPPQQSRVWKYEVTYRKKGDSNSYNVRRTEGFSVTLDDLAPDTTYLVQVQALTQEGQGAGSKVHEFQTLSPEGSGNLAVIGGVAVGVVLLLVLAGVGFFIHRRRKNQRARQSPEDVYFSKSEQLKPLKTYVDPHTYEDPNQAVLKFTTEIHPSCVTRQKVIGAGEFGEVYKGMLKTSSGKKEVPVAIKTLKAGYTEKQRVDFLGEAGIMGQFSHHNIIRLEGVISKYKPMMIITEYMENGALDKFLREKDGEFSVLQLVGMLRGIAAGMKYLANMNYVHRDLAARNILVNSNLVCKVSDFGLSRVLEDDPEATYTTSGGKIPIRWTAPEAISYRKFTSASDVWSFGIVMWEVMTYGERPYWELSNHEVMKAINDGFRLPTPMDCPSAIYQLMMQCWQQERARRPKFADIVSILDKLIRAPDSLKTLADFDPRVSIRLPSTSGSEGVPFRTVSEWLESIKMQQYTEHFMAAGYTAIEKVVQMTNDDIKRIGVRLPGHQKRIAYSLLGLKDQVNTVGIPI
# UniProt P21860, whole entry: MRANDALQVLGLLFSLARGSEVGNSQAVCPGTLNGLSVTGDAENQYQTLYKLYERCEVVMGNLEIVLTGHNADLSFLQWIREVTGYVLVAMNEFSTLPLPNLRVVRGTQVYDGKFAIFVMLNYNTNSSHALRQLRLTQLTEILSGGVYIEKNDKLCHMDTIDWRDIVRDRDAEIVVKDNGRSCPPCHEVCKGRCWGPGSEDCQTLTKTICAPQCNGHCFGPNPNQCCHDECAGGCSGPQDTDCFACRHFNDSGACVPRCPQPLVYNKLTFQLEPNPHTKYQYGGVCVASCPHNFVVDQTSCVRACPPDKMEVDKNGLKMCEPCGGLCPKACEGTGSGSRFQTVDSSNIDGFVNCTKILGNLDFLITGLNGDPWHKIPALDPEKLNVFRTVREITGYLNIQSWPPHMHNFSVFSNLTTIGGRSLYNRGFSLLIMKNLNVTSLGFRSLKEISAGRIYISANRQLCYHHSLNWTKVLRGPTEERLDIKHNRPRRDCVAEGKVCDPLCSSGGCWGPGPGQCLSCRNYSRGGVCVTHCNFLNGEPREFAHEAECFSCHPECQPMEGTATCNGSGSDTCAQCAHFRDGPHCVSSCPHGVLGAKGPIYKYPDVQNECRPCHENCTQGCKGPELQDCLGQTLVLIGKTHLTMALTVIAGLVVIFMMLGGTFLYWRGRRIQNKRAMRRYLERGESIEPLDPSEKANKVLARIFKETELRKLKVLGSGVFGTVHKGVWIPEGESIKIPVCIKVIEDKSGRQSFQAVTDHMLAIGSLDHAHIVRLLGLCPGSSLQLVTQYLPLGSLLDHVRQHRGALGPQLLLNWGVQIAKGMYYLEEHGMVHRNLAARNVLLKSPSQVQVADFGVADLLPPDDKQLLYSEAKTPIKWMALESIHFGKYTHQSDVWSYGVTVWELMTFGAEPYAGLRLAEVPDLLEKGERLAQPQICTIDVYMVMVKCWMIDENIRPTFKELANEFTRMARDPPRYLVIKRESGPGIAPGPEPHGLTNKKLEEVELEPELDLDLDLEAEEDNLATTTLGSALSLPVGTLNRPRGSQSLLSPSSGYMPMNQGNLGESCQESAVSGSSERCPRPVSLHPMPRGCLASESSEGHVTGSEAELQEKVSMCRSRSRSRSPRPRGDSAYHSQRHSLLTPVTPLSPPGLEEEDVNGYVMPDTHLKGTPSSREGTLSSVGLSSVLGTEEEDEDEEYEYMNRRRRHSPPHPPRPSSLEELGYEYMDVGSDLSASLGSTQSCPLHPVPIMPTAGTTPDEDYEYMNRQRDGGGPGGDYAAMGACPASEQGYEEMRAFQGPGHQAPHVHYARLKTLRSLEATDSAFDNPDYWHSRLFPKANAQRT
# UniProt Q15303, whole entry R711C: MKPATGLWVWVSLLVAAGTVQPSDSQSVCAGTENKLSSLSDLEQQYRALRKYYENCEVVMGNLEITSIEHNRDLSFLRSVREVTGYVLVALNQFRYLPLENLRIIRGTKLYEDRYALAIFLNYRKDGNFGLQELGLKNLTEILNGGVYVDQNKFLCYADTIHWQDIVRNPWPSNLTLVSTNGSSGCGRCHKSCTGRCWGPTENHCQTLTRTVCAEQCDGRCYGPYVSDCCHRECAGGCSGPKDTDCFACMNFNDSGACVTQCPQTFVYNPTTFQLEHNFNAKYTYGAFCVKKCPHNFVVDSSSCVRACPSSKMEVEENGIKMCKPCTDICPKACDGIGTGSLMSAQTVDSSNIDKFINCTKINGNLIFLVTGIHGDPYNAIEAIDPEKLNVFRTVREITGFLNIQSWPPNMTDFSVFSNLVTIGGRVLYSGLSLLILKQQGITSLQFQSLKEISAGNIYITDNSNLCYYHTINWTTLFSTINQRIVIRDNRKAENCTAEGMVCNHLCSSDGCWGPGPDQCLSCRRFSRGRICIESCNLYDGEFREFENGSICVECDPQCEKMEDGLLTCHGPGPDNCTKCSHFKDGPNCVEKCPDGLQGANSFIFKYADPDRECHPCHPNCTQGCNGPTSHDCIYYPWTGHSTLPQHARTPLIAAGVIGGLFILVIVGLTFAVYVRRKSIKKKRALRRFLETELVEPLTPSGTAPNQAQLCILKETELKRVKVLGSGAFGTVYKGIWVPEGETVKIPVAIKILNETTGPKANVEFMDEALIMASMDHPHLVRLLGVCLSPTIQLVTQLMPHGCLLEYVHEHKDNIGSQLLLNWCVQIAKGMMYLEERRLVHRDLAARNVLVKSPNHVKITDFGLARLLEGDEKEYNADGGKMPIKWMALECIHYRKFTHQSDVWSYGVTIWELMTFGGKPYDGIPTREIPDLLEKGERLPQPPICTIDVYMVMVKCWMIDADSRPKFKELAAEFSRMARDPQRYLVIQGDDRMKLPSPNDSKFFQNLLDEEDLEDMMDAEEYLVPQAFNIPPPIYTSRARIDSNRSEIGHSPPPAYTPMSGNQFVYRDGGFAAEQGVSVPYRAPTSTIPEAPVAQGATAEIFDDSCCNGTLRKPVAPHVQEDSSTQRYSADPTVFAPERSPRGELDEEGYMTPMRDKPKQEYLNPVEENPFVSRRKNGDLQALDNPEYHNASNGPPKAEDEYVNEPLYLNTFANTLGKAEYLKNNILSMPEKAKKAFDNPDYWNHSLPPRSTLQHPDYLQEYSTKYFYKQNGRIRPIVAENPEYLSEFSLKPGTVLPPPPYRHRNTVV
# Counter-ions that a name gives are not always drawn. The list shows a part of the results. The calls rarely recur for the same compound in another form.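 In K562 cells expressing nanoluciferase-fused kinases, luminescence was recorded at 4 h intervals between 2 and 18 h, normalized as percent of control with DMSO at 100% and a positive control at 0%. A significant (2 sigma) signal drop marks a time point as decreased. The authors' rule for a hit is not shown and takes in more than the number of time points.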
# Assays:
# Assay in all cases: kinase-Nluc reporter destabilization hit call (1 = scored as downregulated) (binary); higher = compound decreases kinase abundance
# Conditions in all cases: K562; 2-18 h
# EGFR = EGFR (UniProt P00533)
# EGFR_G719S = EGFR_G719S (UniProt P00533)
# EGFR_G719S_T790M = EGFR_G719S_T790M (UniProt P00533)
# EGFR_L718V = EGFR_L718V (UniProt P00533)
# EGFR_L858R = EGFR_L858R (UniProt P00533)
# EGFR_L861Q = EGFR_L861Q (UniProt P00533)
# EGFR_T790M = EGFR_T790M (UniProt P00533)
# EPHA2 = EPHA2 (UniProt P29317)
# ERBB3 = ERBB3 (UniProt P21860)
# [1] = biological target: ERBB4_R711C (clone: ERBB4_mut) (UniProt Q15303)
SMILES,kinase-Nluc reporter destabilization hit call (EGFR),kinase-Nluc reporter destabilization hit call (EGFR_G719S),kinase-Nluc reporter destabilization hit call (EGFR_G719S_T790M),kinase-Nluc reporter destabilization hit call (EGFR_L718V),kinase-Nluc reporter destabilization hit call (EGFR_L858R),kinase-Nluc reporter destabilization hit call (EGFR_L861Q),kinase-Nluc reporter destabilization hit call (EGFR_T790M),kinase-Nluc reporter destabilization hit call (EPHA2),kinase-Nluc reporter destabilization hit call (ERBB3),kinase-Nluc reporter destabilization hit call [1]
CC(C)Oc1ccc(F)c(-c2cnc(N)c(C(=O)Nc3cnccc3N3CCC[C@@H](C(=O)O)C3)n2)c1 (2 µM),inactive: 0,inactive: 0,inactive: 0,inactive: 0,inactive: 0,inactive: 0,inactive: 0,inactive: 0,inactive: 0,inactive: 0
C=CC(=O)N1CCN(C(=O)CNc2cc(I)c(Cl)cc2O)CC1 [K-Ras(G12C) inhibitor 12] (10 µM),inactive: 0,inactive: 0,inactive: 0,inactive: 0,inactive: 0,inactive: 0,inactive: 0,inactive: 0,inactive: 0,inactive: 0
Cc1c(C(=O)Nc2ccc(Oc3ccnc4[nH]cc(-c5ccccc5)c34)c(F)c2)c(=O)n(-c2ccc(F)cc2)n1C (10 µM),inactive: 0,inactive: 0,inactive: 0,inactive: 0,inactive: 0,inactive: 0,inactive: 0,inactive: 0,inactive: 0,inactive: 0
CC(C)n1c(=O)n(C)c2cnc3cc(F)c(-c4ccc(OCCCN5CCCCC5)nc4)cc3c21 (10 µM),inactive: 0,inactive: 0,inactive: 0,inactive: 0,inactive: 0,inactive: 0,inactive: 0,inactive: 0,inactive: 0,inactive: 0
CC(Sc1nc2c(cnn2-c2cccc(Cl)c2)c(=O)[nH]1)C(N)=O (stereo not given) (10 µM),inactive: 0,inactive: 0,inactive: 0,inactive: 0,inactive: 0,inactive: 0,inactive: 0,inactive: 0,inactive: 0,inactive: 0
Cn1c(=O)c2c(nc(S(C)(=O)=O)n2C)n(CC#Cc2cccc(O)c2)c1=O (2.5 µM),inactive: 0,inactive: 0,inactive: 0,inactive: 0,inactive: 0,inactive: 0,inactive: 0,inactive: 0,inactive: 0,inactive: 0
O=C1Nc2ccc(I)cc2/C1=C/c1cc(Br)c(O)c(Br)c1 (10 µM),inactive: 0,inactive: 0,inactive: 0,inactive: 0,inactive: 0,inactive: 0,inactive: 0,inactive: 0,inactive: 0,inactive: 0
C[C@H]1O[C@@H](O[C@H]2CC[C@@]3(C)[C@@H](CC[C@]4(C)[C@@H]3C=C[C@]35OC[C@@]6(CCC(C)(C)C[C@H]63)[C@H](O)C[C@]54C)[C@]2(C)CO)[C@H](O)[C@@H](O[C@@H]2O[C@H](CO)[C@@H](O)[C@H](O)[C@H]2O)[C@H]1O [Saikosaponin D] (2.5 µM),inactive: 0,inactive: 0,inactive: 0,inactive: 0,inactive: 0,inactive: 0,inactive: 0,inactive: 0,inactive: 0,inactive: 0
CC(O)(C#Cc1ccc2c(c1)N(c1nc(N)ncc1Cl)CC2)c1nccs1 (stereo not given) (2.5 µM),inactive: 0,inactive: 0,inactive: 0,inactive: 0,inactive: 0,inactive: 0,inactive: 0,inactive: 0,inactive: 0,inactive: 0
O=C1OC(/C=C/c2ccccc2)=NC/1=C\c1cccnc1 (10 µM),inactive: 0,inactive: 0,inactive: 0,inactive: 0,inactive: 0,inactive: 0,inactive: 0,inactive: 0,inactive: 0,inactive: 0
Cn1c(CNc2cccc(C(=O)NCc3ccccc3C(F)(F)F)c2)nnc1-c1ccncc1 (10 µM),inactive: 0,inactive: 0,inactive: 0,inactive: 0,inactive: 0,inactive: 0,inactive: 0,inactive: 0,inactive: 0,inactive: 0
Cc1cc(C(=O)Nc2nc3cccc(Cl)c3n2[C@@H]2CCCCN(C(=O)/C=C/CN(C)C)C2)ccn1 [Nazartinib] (10 µM),inactive: 0,inactive: 0,inactive: 0,inactive: 0,inactive: 0,inactive: 0,inactive: 0,inactive: 0,inactive: 0,inactive: 0
Cc1cccc(COc2cccc(/C=C3\C(=O)NN(c4ccccc4)C3=O)c2)c1 (10 µM),inactive: 0,inactive: 0,inactive: 0,inactive: 0,inactive: 0,inactive: 0,inactive: 0,inactive: 0,inactive: 0,inactive: 0
NCC1CCC(CNc2nc(NCc3ccccc3OC(F)(F)F)ncc2[N+](=O)[O-])CC1 (stereo not given) [PKC-theta inhibitor] (10 µM),inactive: 0,inactive: 0,inactive: 0,inactive: 0,inactive: 0,inactive: 0,inactive: 0,active: 1,active: 1,active: 1
Cc1ccc(NC(=O)Nc2cc(C(F)(F)F)ccc2F)cc1Nc1ccc2c(c1)NC(=O)/C2=C\c1ccc[nH]1 (2.5 µM),inactive: 0,inactive: 0,inactive: 0,inactive: 0,inactive: 0,inactive: 0,inactive: 0,inactive: 0,inactive: 0,inactive: 0
COc1cc2c(cc1O)C[C@H]1c3cc(O)c(OC)cc3CC[N@@+]1(C)C2 [Phellodendrine] (10 µM),inactive: 0,inactive: 0,inactive: 0,inactive: 0,inactive: 0,inactive: 0,inactive: 0,inactive: 0,inactive: 0,inactive: 0
C[C@@H]1O[C@@H](Oc2cc(O)c3c(=O)c(O[C@@H]4O[C@@H](C)[C@H](O)[C@@H](O)[C@H]4O)c(-c4ccc(O)cc4)oc3c2)[C@H](O)[C@H](O)[C@H]1O [Kaempferitrin] (10 µM),inactive: 0,inactive: 0,inactive: 0,inactive: 0,inactive: 0,inactive: 0,inactive: 0,inactive: 0,inactive: 0,inactive: 0
COc1cc(-c2cc(-c3ccc(N4CCNCC4)cc3)cnc2C)cc(OC)c1OC (10 µM),inactive: 0,inactive: 0,inactive: 0,inactive: 0,inactive: 0,inactive: 0,inactive: 0,inactive: 0,inactive: 0,inactive: 0
COc1cc2ncnc(Nc3cccc(I)c3)c2cc1OC (2.5 µM),inactive: 0,inactive: 0,inactive: 0,inactive: 0,inactive: 0,inactive: 0,inactive: 0,inactive: 0,inactive: 0,inactive: 0
Cc1cc(O)c2c(c1)C(=O)c1cccc(O)c1C2=O [Chrysophanol] (2 µM),inactive: 0,inactive: 0,inactive: 0,inactive: 0,inactive: 0,inactive: 0,inactive: 0,inactive: 0,inactive: 0,inactive: 0
Nc1ncc(-c2ccnc(Nc3ccncc3)n2)c(CC2CC2)n1 (10 µM),inactive: 0,inactive: 0,inactive: 0,inactive: 0,inactive: 0,inactive: 0,inactive: 0,inactive: 0,inactive: 0,inactive: 0
Nc1ncc(C(=O)NC2CN(C(=O)C3CC3)C2)c2ccc(-c3cccc(F)c3)nc12 (2 µM),inactive: 0,inactive: 0,inactive: 0,inactive: 0,inactive: 0,inactive: 0,inactive: 0,inactive: 0,inactive: 0,inactive: 0
NCCOc1ccc(Cl)cc1C(=O)Nc1ccc([N+](=O)[O-])cc1Cl [HJC0152 hydrochloride] (2 µM),inactive: 0,inactive: 0,inactive: 0,inactive: 0,inactive: 0,inactive: 0,inactive: 0,inactive: 0,inactive: 0,inactive: 0
O=c1cc(N2CCOCC2)oc2c(-c3ccc4c(c3)OCCO4)csc12 (2.5 µM),inactive: 0,inactive: 0,inactive: 0,inactive: 0,inactive: 0,inactive: 0,inactive: 0,inactive: 0,inactive: 0,inactive: 0
N#Cc1ccc(-c2cnc3ccc(-c4ccc(C(=O)N5CCOCC5)cc4)cn23)cc1 (10 µM),inactive: 0,inactive: 0,inactive: 0,inactive: 0,inactive: 0,inactive: 0,inactive: 0,inactive: 0,inactive: 0,inactive: 0
Nc1[nH]nc2nc(-c3ccc(NS(=O)(=O)c4cc(Cl)ccc4Cl)cc3)cnc12 (10 µM),inactive: 0,inactive: 0,inactive: 0,inactive: 0,inactive: 0,inactive: 0,inactive: 0,inactive: 0,inactive: 0,inactive: 0
NC(=O)c1ccc(N(C(N)=O)c2c(F)cccc2F)nc1-c1ccc(F)cc1F (10 µM),inactive: 0,inactive: 0,inactive: 0,inactive: 0,inactive: 0,inactive: 0,inactive: 0,inactive: 0,inactive: 0,inactive: 0
Nc1nc(NCCNc2ncc(-n3ccnc3)c(-c3ccc(Cl)cc3Cl)n2)ccc1[N+](=O)[O-] (2.5 µM),inactive: 0,active: 1,inactive: 0,inactive: 0,inactive: 0,inactive: 0,inactive: 0,inactive: 0,inactive: 0,inactive: 0
Cc1ccc(C)c(OCCn2cc(C(=O)O)c3ccccc32)c1 (10 µM),inactive: 0,inactive: 0,inactive: 0,inactive: 0,inactive: 0,inactive: 0,inactive: 0,inactive: 0,inactive: 0,inactive: 0

# Entries of single compounds as entered above. Values in the order: kinase-Nluc reporter destabilization hit call (EGFR) | kinase-Nluc reporter destabilization hit call (EGFR_G719S) | kinase-Nluc reporter destabilization hit call (EGFR_G719S_T790M) | kinase-Nluc reporter destabilization hit call (EGFR_L718V) | kinase-Nluc reporter destabilization hit call (EGFR_L858R) | kinase-Nluc reporter destabilization hit call (EGFR_L861Q) | kinase-Nluc reporter destabilization hit call (EGFR_T790M) | kinase-Nluc reporter destabilization hit call (EPHA2) | kinase-Nluc reporter destabilization hit call (ERBB3) | kinase-Nluc reporter destabilization hit call [1]
# C[C@@H]1O[C@@H](Oc2cc(O)c3c(=O)c(O[C@@H]4O[C@@H](C)[C@H](O)[C@@H](O)[C@H]4O)c(-c4ccc(O)cc4)oc3c2)[C@H](O)[C@H](O)[C@H]1O [Kaempferitrin] (10 µM) in the list: inactive: 0 | inactive: 0 | inactive: 0 | inactive: 0 | inactive: 0 | inactive: 0 | inactive: 0 | inactive: 0 | inactive: 0 | inactive: 0
# Cc1ccc(C)c(OCCn2cc(C(=O)O)c3ccccc32)c1 (10 µM) in the list: inactive: 0 | inactive: 0 | inactive: 0 | inactive: 0 | inactive: 0 | inactive: 0 | inactive: 0 | inactive: 0 | inactive: 0 | inactive: 0
